The results are deposited in PubChem (AID912; NCATS, 2007).

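Uptake of anthrax lethal toxin into cultured cells, read by FRET (460/530 nm ratio) and reported from the 460 nm channel; the cell line is not named here. Each compound was tested as a concentration series from about 0.0005 to 40 µM. The number is the fitted AC50 of the 460 nm signal alone; lower values mean a more potent effect. A falling signal goes with compounds filed as inhibitors or cytotoxic, a rising one with activators or fluorescent compounds (inferred from the filed classes).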

Values are in µM. Common to all entries: measured here: 460 nm channel. Part of the compounds only, not a random draw; the main read-out is not listed here. A potency from a partial, single-point or poor curve is only a rough figure. The first word of each remark tells which way the curve ran; it can be opposite to the aim of the assay.

Result for COc1cccc(C(=O)N(Cc2cc3cc(C)ccc3[nH]c2=O)CC2CCCO2)c1 (stereo not shown) was AC50 12.59 µM (rising, single point).
Result for Cc1scc2c1N(C(=O)CN1CCN(C)CC1)c1ccccc1NC2=O was AC50 19.95 µM (falling, partial curve).
Result for O=c1c(-c2ccccc2)nc2cnc(N3CCNCC3)nc2n1C1CC1 was AC50 31.62 µM (falling, single point).
Result for CCOC(=O)c1cc2nc(Nc3ccc(OC)cc3)sc2s1 was AC50 6.31 µM (rising, full curve).
Result for O=C(OCCN1CCOCC1)C1(c2ccccc2)CCCCC1 was AC50 0.001259 µM (rising, full curve, poor fit).
Result for O=C(Nc1ccc(Cl)cc1C(=O)O)c1ccc2c(c1)C(=O)N(Cc1ccco1)C2=O was AC50 3.162 µM (rising, partial curve).
Result for CN(C)S(=O)(=O)c1cccc(C(=O)NCCc2ccccc2)c1 was AC50 12.59 µM (falling, partial curve).
Result for CCOc1ccc(C(=O)Nc2cccc(C)n2)cc1 was AC50 3.981 µM (falling, full curve, poor fit).
Result for Cn1cc(CNC(=O)C2c3ccccc3Oc3ccccc32)cn1 was AC50 5.012 µM (rising, single point).
Result for CC(=O)NCCn1c(SCC(=O)OCc2ccccc2)nc2ccccc2c1=O was AC50 31.62 µM (rising, single point).
Result for O=C(Nc1ccc(Cl)c(Cl)c1)c1ccncc1 was AC50 31.62 µM (falling, single point).
Result for O=C(c1cc(-c2cccs2)on1)N1CCCc2ccccc21 was AC50 10 µM (falling, partial curve).
Result for CCCc1nc2oc3c(NCc4ccccn4)ncnc3c2c2c1COC(C)(C)C2 was AC50 0.3981 µM (rising, full curve, poor fit).
Result for CC1CCC(C(C)C)C(OC(=O)COC(=O)c2ccc(=O)[nH]c2)C1 (stereo not shown) was AC50 15.85 µM (falling, partial curve).
Result for Cc1cc(C)n2nc(CC(=O)NC3CCCCCC3)nc2n1 was AC50 0.03162 µM (falling, full curve, poor fit).
Result for CN(CC(=O)Nc1ccc(Cl)cc1)S(=O)(=O)c1cccc2cccnc12 was AC50 3.981 µM (falling, single point).
Result for CCN(CC)c1ccc2c(C)c(CN3CCOCC3)c(=O)oc2c1 was AC50 10 µM (rising, partial curve).
Result for O=c1c(-c2cccs2)nc2cnc(N3CCOCC3)nc2n1Cc1cccs1 was AC50 1.995 µM (rising, partial curve).
Result for COc1ccc(-c2oc3cc(OC)c(OC(C)=O)c(OC)c3c(=O)c2OC)cc1OC(C)=O was AC50 31.62 µM (falling, single point).
Result for COCCCNC(=O)CC1Oc2ccccc2NC1=O (stereo not shown) was AC50 25.12 µM (rising, single point).
Result for CC1=CC(C)(C)N(C(=O)c2ccc(F)cc2)c2cc3c(cc21)OCO3 was AC50 0.05012 µM (falling, full curve).
Result for CN(C)c1ncc2nc(-c3cc(F)cc(F)c3)c(=O)n(C)c2n1 was AC50 10 µM (rising, partial curve).
Result for COc1cccc(CCc2ccccc2OCC[C@@H]2C[C@@H](O)CN2C)c1 was AC50 31.62 µM (falling, single point).
Result for COc1ccc(CNc2nc(-c3ccc4c(c3)OCO4)nc3ccccc23)c(OC)c1 was AC50 10 µM (falling, single point).
Result for Clc1ccc(-n2ncc3c(NCC4CCCO4)ncnc32)cc1 (stereo not shown) was AC50 6.31 µM (falling, partial curve).
Result for CCOc1ccc(-n2cnnn2)cc1S(=O)(=O)Nc1c(C)cccc1C was AC50 12.59 µM (rising, single point).
Result for CC1CCCN(C(=O)CSc2nnc(-c3ccc(S(=O)(=O)N4CCOCC4)cc3)n2C)C1 (stereo not shown) was AC50 0.3981 µM (falling, partial curve, poor fit).
Result for Cn1c(=O)c(CCc2ccccc2)nc2cnc(Nc3ccccc3)nc21 was AC50 12.59 µM (rising, partial curve).
Result for COC(=O)[C@@]1(Cc2ccc(OC)cc2)[C@H]2c3cc(C(=O)N(C)C)n(Cc4ccsc4Br)c3C[C@H]2CN1C(=O)c1ccccc1 was AC50 5.012 µM (falling, single point).
Result for C=C(C)Cn1c(=O)c2c(nc3n2CCN3c2cccc(Cl)c2C)n(C)c1=O was AC50 3.981 µM (falling, single point).
Result for Cc1ccccc1S(=O)(=O)Cc1ccc(C(=O)NCCCN2CCN(C)CC2)o1 was AC50 0.2512 µM (falling, full curve, poor fit).
Result for COc1cccc(C2C3CN(C)CC=C3C(C#N)=C(N)C2(C#N)C#N)c1OC (stereo not shown) was AC50 7.943 µM (rising, partial curve).
Result for Oc1ccc2c3c1O[C@H]1c4[nH]c5ccccc5c4C[C@]4(O)[C@H](C2)N(CC2CC2)CC[C@@]314 was AC50 25.12 µM (falling, single point).
Result for Cc1occc1C(=O)Nc1ccccc1NC(=O)c1ccoc1C was AC50 5.012 µM (falling, single point).
Result for Clc1ccc2[nH]c3c(c2c1)CCc1cn[nH]c1-3 was AC50 15.85 µM (falling, single point).
Result for COc1cc2c(cc1O)[C@@H](c1cc(O)c(O)c(OC)c1)[C@@](O)(C(=O)O)[C@@H](CO)[C@@H]2O was AC50 5.012 µM (rising, single point).
Result for Cc1ccc2nc3c(cc(C(=O)NCc4ccccc4)c(=N)n3CCCn3ccnc3)c(=O)n2c1 was AC50 0.7943 µM (rising, full curve).
Result for CCOC(=O)C1C2C=CC3(CN(Cc4ccco4)C(=O)C13)O2 (stereo not shown) was AC50 25.12 µM (rising, single point).

Some entries from above, unchanged:

compound	AC50 (µM)	curve
COc1cccc(C2C3CN(C)CC=C3C(C#N)=C(N)C2(C#N)C#N)c1OC (stereo not shown)	7.943	rising, partial curve
CC1CCCN(C(=O)CSc2nnc(-c3ccc(S(=O)(=O)N4CCOCC4)cc3)n2C)C1 (stereo not shown)	0.3981	falling, partial curve, poor fit
COc1ccc(CNc2nc(-c3ccc4c(c3)OCO4)nc3ccccc23)c(OC)c1	10	falling, single point